Results from PubChem BioAssay AID493014 (National Center for Advancing Translational Sciences (NCATS), 2011).
The list shows a part of the results. These are further read-outs of the screen, such as a control signal, another cell line or another target. No call is given for them. Most of these compounds were active or inconclusive in the main read-out, so they are no random draw. Potencies come from curve fits of mixed quality, noted in brackets.

Assay: qHTS Assay to Find Inhibitors of Chronic Active B-Cell Receptor Signaling
Settings: ABC-DLBCL IkBa-CBG/CBR reporter, luminescence ratio (green luciferase fused to IkBa over red control in TMD8 lymphoma cells), 4 h; measured here: CBR red luminescence, cell number
Method in brief: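 TMD8 human ABC-DLBCL cells with doxycycline-inducible IκBα–green luciferase fusion and unfused red luciferase, in 0.5% FBS medium; compounds up to 46 uM, 4 h at 37C. Green/red luminescence ratio, filter-overlap corrected, fitted to concentration-response curves.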

Row | SMILES | AC50
1 | O=C(/C=C/c1ccc(S(=O)(=O)N2CCOCC2)cc1)NC(=S)NCCCn1ccnc1 | 35.5 µM [falling, single point]
2 | CNC(=O)c1[nH]cnc1C(=O)Nc1ccccc1OC | 0.13 µM [falling, full curve]
3 | Nc1nc(SCC(=O)Nc2ccccc2)nc2nc3c(cc12)CCCC3 | 25.9 µM [falling, single point]
4 | C=CCNC(=S)N/N=C/c1ccccc1OCCOc1ccccc1 | 35.5 µM [rising, single point]
5 | CSc1ccccc1NC(=O)c1ccc(N2CC3CC(C2)c2cccc(=O)n2C3)c(NC(=O)c2ccncc2)c1 (stereo not drawn) | 0.631 µM [rising, full curve, poor fit]
6 | COc1ccc(CCNC(=O)Nc2cccs2)c(OC)c1 | 17.8 µM [rising, single point]
7 | O=C(N/N=C/c1ccccc1)c1[nH]ncc1Br | 5.01 µM [falling, full curve]
8 | Cc1cc(=O)[nH]c(SCC2COC3(CCCCC3)O2)n1 (stereo not drawn) | 29.1 µM [falling, single point]
9 | CC1CCN(S(=O)(=O)c2ccc(NC(=O)Cn3nnc(-c4ccccc4F)n3)cc2)CC1 | 35.5 µM [rising, single point]
10 | COc1cc(C2Nc3ccccc3C(=O)N2c2ccccc2)ccc1O (stereo not drawn) | 0.112 µM [falling, full curve, poor fit]
11 | COc1ccc(CC(=O)NCc2ccc3c(c2)CCN3C(C)=O)cc1 | 10 µM [rising, partial curve, poor fit]
12 | Brc1ccc(OCc2nc(-c3ccccn3)n[nH]2)cc1 | 16.4 µM [falling, partial curve]
13 | C/C(CC(=O)Nc1ccc(C)c(Cl)c1)=N\NC(=O)c1ccncc1 | 35.5 µM [falling, single point]
14 | CSc1nnc(NC(=O)c2ccco2)s1 | 10 µM [falling, single point]
15 | CCCCCCNC(=O)CC(NS(=O)(=O)c1ccc(NC(C)=O)cc1)C(C)C (stereo not drawn) | 12.6 µM [rising, partial curve, poor fit]
16 | CC(C)(C)OC(=O)[C@H]1[C@H](c2ccc([N+](=O)[O-])cc2)C2(C(=O)c3ccccc3C2=O)C2c3ccccc3C=NN21 (stereo partly drawn) | 5.8 µM [rising, full curve, poor fit]
17 | O=C1C=C(O)CC(c2ccc(Cl)c(Cl)c2)C1 (stereo not drawn) | 18.4 µM [rising, partial curve, poor fit]
18 | CC(=O)c1cccc(NC(=O)C(=O)c2cn(CC(=O)N3CCCCC3)c3ccccc23)c1 | 0.891 µM [falling, full curve]

Grouped by structure, the compounds so far containing a Cl atom.
Row | SMILES | AC50
13 | C/C(CC(=O)Nc1ccc(C)c(Cl)c1)=N\NC(=O)c1ccncc1 | 35.5 µM [falling, single point]
17 | O=C1C=C(O)CC(c2ccc(Cl)c(Cl)c2)C1 (stereo not drawn) | 18.4 µM [rising, partial curve, poor fit]
